The source of these data is publication PMC1888729.

Protein sequences, listed by entry. Tags and fused reporters are not part of them. Lines headed by an entry give the natural chain unless they say otherwise; changes in a name come on top.
UniProt Q9UHX1: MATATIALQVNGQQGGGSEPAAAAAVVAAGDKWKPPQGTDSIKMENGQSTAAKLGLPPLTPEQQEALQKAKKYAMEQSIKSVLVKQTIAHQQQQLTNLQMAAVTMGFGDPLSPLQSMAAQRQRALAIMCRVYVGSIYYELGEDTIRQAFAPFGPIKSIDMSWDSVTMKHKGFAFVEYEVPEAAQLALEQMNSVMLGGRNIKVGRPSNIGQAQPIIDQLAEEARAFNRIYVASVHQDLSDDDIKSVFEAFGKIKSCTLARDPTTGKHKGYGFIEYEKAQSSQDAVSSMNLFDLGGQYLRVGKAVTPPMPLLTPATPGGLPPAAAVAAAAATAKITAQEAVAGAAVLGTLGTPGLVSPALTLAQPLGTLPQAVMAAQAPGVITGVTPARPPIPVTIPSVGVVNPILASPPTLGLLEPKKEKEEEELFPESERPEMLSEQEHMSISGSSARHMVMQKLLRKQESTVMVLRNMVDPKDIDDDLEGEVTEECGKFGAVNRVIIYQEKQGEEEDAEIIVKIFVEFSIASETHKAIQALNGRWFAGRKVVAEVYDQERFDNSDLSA
UniProt O75533: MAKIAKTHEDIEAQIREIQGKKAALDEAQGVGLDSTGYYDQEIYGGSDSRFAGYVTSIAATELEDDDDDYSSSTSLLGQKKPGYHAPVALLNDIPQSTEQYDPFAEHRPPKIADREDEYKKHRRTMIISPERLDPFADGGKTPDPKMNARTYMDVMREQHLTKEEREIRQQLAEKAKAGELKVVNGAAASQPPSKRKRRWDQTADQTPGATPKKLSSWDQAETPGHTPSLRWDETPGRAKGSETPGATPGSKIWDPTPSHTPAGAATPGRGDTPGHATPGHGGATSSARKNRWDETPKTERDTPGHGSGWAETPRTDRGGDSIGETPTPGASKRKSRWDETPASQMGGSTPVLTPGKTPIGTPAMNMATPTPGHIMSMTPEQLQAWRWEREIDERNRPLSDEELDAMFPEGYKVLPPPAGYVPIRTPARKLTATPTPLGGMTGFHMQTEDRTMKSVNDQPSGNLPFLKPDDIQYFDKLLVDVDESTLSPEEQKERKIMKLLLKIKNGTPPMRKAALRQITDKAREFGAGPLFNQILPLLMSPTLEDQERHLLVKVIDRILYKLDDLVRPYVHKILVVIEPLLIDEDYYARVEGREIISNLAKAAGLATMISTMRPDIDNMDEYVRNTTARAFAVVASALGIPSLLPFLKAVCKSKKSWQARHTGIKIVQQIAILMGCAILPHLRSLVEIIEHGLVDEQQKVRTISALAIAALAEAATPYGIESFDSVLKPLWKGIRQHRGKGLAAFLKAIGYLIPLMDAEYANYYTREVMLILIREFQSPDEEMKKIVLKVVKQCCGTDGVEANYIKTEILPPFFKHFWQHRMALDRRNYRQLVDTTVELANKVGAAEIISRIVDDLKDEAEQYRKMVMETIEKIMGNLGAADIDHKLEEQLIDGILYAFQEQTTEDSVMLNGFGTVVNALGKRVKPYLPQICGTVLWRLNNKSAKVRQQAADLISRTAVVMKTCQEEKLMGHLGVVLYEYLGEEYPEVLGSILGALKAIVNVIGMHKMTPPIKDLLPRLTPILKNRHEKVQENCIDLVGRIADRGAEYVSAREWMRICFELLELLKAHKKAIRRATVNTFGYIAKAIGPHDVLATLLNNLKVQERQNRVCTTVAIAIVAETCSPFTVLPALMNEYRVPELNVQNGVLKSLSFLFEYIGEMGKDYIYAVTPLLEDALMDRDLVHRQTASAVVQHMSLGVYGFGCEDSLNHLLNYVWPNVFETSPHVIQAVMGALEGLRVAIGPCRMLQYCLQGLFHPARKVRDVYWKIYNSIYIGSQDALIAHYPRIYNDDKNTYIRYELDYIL
UniProt Q15393: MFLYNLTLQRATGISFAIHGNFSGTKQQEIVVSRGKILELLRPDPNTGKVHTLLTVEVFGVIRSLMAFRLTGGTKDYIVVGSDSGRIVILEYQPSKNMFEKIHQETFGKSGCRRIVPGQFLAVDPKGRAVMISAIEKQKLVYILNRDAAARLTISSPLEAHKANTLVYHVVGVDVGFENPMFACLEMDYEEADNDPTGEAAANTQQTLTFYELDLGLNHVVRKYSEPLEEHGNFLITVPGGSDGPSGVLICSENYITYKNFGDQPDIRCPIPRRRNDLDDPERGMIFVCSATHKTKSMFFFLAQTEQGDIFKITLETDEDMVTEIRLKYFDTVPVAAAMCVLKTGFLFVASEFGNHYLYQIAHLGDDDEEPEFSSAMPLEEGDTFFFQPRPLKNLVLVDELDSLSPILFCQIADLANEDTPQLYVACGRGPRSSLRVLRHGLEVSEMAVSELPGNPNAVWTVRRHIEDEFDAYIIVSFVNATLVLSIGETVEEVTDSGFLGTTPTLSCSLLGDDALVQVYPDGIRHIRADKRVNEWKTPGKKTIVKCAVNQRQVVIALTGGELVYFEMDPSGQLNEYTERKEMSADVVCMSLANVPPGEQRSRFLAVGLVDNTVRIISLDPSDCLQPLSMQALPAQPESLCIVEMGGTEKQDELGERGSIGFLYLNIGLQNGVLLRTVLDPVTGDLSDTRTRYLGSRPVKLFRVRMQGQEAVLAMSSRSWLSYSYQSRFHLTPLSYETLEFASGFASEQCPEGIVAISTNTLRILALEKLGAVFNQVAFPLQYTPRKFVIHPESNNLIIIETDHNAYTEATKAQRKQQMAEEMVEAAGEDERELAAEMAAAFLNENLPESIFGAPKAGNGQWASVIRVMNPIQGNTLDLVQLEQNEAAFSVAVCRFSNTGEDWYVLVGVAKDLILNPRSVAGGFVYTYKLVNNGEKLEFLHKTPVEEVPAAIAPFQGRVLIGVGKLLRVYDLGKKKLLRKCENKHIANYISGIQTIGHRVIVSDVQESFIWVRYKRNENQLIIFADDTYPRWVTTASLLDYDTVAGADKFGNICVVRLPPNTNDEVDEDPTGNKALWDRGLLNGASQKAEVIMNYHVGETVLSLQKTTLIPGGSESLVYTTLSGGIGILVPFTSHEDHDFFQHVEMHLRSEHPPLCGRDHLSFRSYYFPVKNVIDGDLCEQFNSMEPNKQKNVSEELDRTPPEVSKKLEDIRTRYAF
UniProt P08621: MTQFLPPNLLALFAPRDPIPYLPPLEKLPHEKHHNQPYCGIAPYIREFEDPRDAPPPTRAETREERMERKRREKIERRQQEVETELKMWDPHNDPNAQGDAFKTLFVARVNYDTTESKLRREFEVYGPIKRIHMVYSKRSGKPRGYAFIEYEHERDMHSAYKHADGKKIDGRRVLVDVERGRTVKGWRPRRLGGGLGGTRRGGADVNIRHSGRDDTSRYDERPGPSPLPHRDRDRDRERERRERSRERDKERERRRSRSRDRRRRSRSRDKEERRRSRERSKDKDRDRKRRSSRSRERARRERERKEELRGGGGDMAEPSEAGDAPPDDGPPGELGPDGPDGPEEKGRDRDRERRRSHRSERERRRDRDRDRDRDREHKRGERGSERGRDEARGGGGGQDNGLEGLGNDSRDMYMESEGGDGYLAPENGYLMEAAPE
UniProt P38919: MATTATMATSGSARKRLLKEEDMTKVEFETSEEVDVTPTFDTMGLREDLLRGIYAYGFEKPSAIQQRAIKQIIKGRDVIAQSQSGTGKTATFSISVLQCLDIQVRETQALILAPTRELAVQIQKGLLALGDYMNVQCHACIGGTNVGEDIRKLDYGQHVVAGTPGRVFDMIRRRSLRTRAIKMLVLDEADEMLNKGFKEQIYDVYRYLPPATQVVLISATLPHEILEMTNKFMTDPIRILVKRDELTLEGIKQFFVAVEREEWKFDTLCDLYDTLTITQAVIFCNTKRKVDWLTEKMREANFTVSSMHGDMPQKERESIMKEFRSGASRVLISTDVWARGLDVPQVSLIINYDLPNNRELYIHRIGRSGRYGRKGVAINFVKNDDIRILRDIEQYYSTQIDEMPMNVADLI
UniProt O95218: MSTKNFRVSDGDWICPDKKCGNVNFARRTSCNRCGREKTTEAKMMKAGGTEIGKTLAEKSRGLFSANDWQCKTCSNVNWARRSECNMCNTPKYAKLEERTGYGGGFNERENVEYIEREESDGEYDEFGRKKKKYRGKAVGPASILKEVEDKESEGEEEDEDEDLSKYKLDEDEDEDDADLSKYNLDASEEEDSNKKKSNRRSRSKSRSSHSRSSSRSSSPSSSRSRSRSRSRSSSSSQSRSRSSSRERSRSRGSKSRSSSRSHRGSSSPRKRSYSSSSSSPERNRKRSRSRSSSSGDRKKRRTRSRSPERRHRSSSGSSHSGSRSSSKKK
UniProt Q9Y580: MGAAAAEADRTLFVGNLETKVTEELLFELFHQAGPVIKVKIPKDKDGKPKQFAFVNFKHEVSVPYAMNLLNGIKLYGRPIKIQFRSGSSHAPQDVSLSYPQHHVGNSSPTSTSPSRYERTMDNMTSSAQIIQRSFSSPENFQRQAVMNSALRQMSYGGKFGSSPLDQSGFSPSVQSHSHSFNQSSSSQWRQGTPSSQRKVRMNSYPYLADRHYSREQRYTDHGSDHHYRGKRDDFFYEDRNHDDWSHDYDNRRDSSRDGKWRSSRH
UniProt Q13435: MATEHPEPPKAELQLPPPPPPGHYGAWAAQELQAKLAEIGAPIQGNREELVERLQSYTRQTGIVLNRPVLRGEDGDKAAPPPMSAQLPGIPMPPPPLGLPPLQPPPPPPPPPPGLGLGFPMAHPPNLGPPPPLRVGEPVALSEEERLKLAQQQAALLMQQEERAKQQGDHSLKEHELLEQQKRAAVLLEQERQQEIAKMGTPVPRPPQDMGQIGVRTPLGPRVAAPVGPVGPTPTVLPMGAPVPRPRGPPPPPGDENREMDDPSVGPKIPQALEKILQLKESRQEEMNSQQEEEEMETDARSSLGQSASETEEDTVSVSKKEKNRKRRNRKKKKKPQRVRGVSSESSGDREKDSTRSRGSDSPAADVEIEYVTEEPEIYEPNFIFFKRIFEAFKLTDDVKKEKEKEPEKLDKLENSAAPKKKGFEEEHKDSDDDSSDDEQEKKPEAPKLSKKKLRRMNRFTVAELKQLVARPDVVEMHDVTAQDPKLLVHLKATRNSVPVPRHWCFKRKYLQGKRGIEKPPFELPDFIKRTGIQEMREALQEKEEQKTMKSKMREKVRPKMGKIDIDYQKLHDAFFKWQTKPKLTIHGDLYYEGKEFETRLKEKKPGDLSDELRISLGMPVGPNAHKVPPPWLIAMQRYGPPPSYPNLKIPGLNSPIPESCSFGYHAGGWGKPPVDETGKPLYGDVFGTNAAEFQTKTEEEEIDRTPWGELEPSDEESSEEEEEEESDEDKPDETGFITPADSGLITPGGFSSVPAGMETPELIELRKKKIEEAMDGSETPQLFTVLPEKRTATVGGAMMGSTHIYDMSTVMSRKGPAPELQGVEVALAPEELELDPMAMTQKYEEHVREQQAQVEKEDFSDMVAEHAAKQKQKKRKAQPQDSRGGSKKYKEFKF
UniProt P09012: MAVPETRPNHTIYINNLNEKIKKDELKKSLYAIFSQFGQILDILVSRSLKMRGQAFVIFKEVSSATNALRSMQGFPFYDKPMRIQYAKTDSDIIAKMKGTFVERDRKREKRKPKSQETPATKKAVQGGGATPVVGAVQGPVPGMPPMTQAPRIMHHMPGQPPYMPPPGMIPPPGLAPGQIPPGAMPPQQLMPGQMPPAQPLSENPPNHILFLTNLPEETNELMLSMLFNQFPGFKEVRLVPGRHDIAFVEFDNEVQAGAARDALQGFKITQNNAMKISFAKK
UniProt Q07955: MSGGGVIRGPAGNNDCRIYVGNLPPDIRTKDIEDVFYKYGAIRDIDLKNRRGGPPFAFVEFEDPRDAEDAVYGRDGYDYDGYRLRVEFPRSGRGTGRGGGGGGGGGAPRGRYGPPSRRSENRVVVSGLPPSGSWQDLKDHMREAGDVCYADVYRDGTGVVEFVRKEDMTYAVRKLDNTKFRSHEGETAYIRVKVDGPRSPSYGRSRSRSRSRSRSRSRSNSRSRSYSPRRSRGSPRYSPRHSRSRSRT
UniProt P10155: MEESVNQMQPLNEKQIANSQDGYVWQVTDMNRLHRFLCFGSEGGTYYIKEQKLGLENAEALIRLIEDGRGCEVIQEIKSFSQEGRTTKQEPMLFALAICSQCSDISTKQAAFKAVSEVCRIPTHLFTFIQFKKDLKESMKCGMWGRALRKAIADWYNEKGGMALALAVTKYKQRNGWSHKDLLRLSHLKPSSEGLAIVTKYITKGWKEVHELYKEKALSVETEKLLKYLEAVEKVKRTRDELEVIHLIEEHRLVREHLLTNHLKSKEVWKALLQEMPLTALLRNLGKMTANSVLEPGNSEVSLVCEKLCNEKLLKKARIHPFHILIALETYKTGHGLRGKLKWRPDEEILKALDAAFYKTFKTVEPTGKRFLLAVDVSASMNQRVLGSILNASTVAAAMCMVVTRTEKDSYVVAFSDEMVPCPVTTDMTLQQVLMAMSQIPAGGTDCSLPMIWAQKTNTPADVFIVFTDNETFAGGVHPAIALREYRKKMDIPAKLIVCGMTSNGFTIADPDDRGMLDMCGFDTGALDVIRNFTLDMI

These are yes or no findings as the source states them, for the method shown. Binding seen in cells or lysates may run through a third protein. A yes stands for co-enrichment or nearness to the bait. Other partners may have been found.

This test addresses FLAG-V5-tagged PUF60 (PUF60L) (human) (UniProt Q9UHX1). The test is described as follows: affinity purification with mass spectrometry; F-V5-PUF60L precipitated from HeLa S3 nuclear extract on ANTI-FLAG M2 Affinity Gel, 1 h at 4°C, IP buffer (20 mM Hepes pH 8, 150 mM KCl, 1.5 mM MgCl2); washes with 250 mM KCl, 0.05% Triton X-100, one with 200 ng/ml RNase A; digested on the beads, or eluted with FLAG peptide and gel bands excised; only proteins found in both experiments and absent from control HeLa extract are listed.
Take SF3b155 (from UniProt O75533 1-1304): the binding entry is “binds”. The entry for SF3B130 (from UniProt Q15393 1-1217) is “binds”. U1 70K (from UniProt P08621 1-437): the binding entry was “binds”. The entry for “eIF4AIII/DDx48 (from UniProt P38919 1-411)” is “binds”; for SRM300 (from UniProt Q9UQ35 1-2752) it is “binds”. The entry for ZN265 (from UniProt O95218 1-330) is “binds”. Take RBM7 (from UniProt Q9Y580 1-266): the binding entry was “binds”. FUS (from UniProt P35637 1-526): the binding result was “binds”. As for SF3B145 (from UniProt Q13435 1-895), the binding entry is “binds”. Consider U1A (from UniProt P09012 1-282), for which the binding entry is “binds”.

As to SF2/ASF (from UniProt Q07955 1-248), the binding result was “binds”. Regarding Ro 60KDa (from UniProt P10155 1-538), the binding entry is listed as “binds”.
